According to the supplement of paper PMC10849652:
The other results are listed elsewhere or left out. Residues, ends and D or L forms follow the SMILES beside them. *: point of attachment. Cbz = O=C(OCc1ccccc1)*

Amino acid sequences for entries named in this document (tags omitted). A change or cut given only in a name is not applied to a line headed by its entry.
UniProt Q53R41: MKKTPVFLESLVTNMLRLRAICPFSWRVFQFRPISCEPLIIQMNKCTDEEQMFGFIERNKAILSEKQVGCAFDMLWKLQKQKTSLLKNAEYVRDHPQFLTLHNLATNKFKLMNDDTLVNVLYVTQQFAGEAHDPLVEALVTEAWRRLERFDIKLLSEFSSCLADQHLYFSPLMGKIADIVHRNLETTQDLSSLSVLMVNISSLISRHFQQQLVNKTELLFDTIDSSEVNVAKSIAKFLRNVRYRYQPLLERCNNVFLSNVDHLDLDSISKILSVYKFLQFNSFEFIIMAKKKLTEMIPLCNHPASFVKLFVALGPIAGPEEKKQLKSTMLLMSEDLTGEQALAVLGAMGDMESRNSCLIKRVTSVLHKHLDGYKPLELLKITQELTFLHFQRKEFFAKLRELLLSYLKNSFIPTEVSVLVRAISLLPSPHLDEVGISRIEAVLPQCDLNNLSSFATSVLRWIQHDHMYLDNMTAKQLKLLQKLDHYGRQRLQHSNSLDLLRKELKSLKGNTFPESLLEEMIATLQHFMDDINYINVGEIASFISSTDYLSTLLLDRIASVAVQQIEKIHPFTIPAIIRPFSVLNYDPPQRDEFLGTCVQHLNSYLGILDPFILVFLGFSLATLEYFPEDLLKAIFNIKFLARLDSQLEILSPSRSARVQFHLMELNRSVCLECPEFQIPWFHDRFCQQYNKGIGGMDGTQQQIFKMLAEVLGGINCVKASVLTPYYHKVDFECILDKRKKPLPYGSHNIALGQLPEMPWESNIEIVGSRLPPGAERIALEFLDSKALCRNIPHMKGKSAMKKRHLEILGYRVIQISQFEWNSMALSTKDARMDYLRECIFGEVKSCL
UniProt Q8NB91: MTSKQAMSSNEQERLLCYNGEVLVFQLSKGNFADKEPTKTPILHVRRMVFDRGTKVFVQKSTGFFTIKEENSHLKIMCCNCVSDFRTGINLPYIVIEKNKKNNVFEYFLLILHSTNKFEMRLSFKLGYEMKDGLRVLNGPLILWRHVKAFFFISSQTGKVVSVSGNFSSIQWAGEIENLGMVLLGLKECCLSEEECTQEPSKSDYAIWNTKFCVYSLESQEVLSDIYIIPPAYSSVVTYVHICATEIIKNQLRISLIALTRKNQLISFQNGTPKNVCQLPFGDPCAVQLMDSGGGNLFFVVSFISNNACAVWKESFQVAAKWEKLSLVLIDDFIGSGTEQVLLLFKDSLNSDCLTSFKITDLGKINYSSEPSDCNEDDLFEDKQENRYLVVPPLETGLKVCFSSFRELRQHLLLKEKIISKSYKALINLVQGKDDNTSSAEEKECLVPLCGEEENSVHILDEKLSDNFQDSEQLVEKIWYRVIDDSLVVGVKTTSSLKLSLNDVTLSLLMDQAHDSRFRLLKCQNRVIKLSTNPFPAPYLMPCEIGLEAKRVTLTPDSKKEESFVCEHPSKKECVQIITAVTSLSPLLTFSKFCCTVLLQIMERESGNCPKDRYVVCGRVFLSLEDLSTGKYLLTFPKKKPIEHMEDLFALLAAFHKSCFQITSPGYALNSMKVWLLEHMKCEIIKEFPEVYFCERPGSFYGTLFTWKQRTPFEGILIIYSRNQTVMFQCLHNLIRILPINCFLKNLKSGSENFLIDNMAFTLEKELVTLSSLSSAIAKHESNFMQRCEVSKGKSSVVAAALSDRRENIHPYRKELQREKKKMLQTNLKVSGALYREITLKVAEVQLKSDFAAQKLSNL
UniProt Q96CP2: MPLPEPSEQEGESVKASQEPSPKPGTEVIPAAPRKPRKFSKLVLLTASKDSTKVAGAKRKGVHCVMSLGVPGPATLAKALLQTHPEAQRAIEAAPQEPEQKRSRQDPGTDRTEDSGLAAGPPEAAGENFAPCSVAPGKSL
UniProt P12318: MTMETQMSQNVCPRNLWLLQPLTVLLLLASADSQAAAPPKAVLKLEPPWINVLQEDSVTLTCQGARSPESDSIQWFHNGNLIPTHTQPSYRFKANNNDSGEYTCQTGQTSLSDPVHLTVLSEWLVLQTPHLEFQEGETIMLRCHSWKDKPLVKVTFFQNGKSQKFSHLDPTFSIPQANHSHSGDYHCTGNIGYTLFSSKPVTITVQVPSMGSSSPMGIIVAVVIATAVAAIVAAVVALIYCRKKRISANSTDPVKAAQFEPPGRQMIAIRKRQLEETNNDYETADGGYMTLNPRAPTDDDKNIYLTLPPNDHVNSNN
UniProt P26885: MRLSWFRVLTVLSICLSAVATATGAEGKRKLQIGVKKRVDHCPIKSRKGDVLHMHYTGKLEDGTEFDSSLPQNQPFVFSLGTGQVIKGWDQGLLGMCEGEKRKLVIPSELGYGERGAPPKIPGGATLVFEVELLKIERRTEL
UniProt P31995: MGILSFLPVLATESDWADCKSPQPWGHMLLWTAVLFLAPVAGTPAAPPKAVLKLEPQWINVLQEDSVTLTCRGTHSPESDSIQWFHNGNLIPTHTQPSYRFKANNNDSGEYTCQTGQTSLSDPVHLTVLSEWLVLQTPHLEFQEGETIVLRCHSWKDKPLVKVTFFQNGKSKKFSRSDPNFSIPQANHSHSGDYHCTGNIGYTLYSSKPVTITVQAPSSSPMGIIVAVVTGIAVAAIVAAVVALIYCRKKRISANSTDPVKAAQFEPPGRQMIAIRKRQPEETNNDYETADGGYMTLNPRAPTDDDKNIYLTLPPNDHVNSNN
UniProt P37268: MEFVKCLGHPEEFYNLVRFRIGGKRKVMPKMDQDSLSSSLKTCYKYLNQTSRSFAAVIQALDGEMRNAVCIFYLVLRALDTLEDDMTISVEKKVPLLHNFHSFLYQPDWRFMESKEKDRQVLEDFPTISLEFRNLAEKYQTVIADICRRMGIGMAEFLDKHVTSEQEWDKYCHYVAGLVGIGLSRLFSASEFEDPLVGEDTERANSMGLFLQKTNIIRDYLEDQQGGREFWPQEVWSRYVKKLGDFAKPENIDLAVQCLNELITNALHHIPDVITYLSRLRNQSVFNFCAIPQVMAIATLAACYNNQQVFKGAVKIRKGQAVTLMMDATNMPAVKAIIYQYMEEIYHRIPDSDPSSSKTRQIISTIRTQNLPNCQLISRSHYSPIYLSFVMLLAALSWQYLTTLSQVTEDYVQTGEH
UniProt Q14320: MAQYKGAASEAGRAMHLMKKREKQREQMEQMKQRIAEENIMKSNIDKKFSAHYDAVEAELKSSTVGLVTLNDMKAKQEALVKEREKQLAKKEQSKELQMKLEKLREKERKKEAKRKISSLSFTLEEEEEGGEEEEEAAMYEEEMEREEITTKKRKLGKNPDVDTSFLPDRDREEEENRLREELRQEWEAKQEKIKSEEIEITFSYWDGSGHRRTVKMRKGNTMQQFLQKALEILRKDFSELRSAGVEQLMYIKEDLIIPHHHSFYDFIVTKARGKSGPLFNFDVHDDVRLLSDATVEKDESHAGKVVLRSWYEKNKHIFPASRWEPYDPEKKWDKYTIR
UniProt Q8NFZ0: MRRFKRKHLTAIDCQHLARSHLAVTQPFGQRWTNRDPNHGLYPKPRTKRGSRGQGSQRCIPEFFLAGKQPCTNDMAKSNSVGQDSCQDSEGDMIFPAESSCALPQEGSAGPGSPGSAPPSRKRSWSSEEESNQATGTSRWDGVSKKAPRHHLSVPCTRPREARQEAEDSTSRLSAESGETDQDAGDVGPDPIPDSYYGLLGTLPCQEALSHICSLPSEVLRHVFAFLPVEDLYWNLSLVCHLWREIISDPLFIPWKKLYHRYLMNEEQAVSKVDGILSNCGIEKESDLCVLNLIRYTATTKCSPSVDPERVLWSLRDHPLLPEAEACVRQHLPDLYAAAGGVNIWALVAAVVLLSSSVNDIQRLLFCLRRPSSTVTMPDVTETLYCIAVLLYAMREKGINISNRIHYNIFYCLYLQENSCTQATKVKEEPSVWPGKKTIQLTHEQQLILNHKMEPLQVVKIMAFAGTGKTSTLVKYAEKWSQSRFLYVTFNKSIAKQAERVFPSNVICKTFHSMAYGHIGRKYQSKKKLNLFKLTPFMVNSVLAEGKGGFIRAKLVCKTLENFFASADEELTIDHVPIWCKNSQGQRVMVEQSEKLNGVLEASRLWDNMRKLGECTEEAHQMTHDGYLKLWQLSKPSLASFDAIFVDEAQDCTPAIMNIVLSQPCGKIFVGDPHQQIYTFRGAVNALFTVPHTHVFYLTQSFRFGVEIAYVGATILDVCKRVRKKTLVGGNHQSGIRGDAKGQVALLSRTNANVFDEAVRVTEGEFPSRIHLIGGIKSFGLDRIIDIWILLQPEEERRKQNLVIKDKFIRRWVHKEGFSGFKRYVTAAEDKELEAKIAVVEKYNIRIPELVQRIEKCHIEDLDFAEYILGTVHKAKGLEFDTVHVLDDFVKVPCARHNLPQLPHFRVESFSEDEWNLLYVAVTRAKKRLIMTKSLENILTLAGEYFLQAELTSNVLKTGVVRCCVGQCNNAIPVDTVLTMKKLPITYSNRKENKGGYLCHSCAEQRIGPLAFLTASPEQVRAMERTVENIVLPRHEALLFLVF
UniProt O75955: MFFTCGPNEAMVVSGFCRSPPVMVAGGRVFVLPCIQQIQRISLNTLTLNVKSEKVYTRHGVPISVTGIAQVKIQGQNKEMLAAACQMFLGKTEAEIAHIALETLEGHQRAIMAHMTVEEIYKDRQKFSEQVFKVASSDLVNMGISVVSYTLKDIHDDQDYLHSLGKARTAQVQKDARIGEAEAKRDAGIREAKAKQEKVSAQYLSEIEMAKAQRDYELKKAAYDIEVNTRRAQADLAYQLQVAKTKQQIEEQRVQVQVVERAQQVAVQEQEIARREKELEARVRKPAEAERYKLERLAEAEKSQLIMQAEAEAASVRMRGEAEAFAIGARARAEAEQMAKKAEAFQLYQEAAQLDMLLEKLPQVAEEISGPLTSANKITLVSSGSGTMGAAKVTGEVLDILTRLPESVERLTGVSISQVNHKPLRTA
UniProt Q9UKT5: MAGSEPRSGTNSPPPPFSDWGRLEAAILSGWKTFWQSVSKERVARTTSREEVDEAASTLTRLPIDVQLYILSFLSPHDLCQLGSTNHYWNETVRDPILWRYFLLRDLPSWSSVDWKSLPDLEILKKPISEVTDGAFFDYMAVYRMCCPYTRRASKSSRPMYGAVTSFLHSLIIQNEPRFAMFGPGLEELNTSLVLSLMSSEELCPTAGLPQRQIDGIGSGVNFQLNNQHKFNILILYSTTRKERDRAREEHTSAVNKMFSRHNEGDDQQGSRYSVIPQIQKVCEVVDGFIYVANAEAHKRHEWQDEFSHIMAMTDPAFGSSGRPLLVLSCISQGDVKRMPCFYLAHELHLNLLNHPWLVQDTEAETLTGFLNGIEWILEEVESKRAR
UniProt P23142: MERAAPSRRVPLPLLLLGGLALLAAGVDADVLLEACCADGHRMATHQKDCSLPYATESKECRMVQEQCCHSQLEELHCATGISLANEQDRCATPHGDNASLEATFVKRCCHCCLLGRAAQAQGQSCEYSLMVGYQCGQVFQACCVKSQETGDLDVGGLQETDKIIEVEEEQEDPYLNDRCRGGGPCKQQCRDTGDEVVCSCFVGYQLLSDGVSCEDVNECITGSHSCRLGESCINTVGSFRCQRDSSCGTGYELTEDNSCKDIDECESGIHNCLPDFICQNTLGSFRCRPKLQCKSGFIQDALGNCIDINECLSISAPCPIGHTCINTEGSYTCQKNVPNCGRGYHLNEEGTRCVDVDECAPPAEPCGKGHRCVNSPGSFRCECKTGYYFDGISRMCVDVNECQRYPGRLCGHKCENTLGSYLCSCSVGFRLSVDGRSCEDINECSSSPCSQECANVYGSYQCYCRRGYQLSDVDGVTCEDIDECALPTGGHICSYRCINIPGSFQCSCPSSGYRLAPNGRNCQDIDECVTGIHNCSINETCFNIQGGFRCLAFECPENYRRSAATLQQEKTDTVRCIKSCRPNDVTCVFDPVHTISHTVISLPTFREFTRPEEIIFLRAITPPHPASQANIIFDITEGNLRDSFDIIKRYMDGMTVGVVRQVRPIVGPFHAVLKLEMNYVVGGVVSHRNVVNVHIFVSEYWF
UniProt Q13451: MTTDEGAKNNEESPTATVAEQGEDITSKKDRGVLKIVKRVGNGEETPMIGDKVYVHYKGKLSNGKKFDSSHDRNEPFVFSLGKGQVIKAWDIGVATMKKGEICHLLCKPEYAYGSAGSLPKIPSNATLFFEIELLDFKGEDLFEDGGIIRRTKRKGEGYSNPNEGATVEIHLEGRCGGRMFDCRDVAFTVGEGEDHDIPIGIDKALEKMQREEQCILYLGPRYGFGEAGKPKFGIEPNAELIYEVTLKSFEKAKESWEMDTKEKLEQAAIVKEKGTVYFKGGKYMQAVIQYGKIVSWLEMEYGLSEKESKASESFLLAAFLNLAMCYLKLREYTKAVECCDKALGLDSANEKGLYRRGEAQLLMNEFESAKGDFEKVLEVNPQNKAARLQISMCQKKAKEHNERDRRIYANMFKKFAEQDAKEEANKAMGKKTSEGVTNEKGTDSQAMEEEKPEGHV

Columns and labels:
Assay in all cases: log2 fold change, soluble protein after heating vs DMSO (PISA); higher = thermal stabilisation; K562 cells, 10 uM, 30 min; active = over 0.2 and 3.5 SD of the protein, either way, in both replicates (recomputed)
erlotinib = compound: C#Cc1cccc(Nc2ncnc3cc(OCCOC)c(OCCOC)cc23)c1 [erlotinib]
Outline: (§1)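 Values are thermal stability changes relative to control samples and are taken from duplicates. They are stated as log2 fold changes. Before quantification by TMTpro 16plex LC-MS/MS with equalised channel sums, K562 cells at 2×10^6 cells/mL were treated with 10 μM compound for 30 min, heated in aliquots for 3 min across 48°C-58°C, pooled, extracted in PBS with 0.5% NP-40 at 4°C, and centrifuged at 21,000xg for 90 min to give the soluble supernatant.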

[1] = compound: C/C(=N\NC(=O)C1=CC(=CC=C1)S(=O)(=O)N2CCOCC2)/C3=C(C=CC(=C3)Cl)O
Outline: as §1

[2] = compound: C1=CC(=C(C=C1Cl)C2=NC3=NC=CN=C3C(=N2)NC4=CC=NC=C4)F
Outline: as §1

[3] = compound: C1=CC(=CC=C1C2=NC3=C(N2)C=C(C=C3)C(=O)N)OC4=CC=C(C=C4)Cl
Outline: as §1

[4] = compound: C1=CC2=C(C=CC(=C2)/C=C\3/C(=O)NC(=NCC4=CC=CS4)S3)N=C1
Outline: as §1

[5] = compound: C1=CC2=NC=CN=C2C=C1/C=C/3\C(=O)NC(=O)S3
Outline: as §1

[6] = compound: C1=CC=C(C=C1)C2=NC(=C(N2)C3=CC=NC=C3)C4=CC(=C(C=C4)Cl)O
Outline: as §1

[7] = compound: C1=CC=C2C(=C1)C3=NNC4=CC=CC(=C43)C2=O
Outline: as §1

[8] = compound: C1CCN(C1)C(=O)NC2=CC=CC(=C2)NC3=NC=C(C(=N3)NCCC4=CN=CN4)Br
Outline: as §1

[9] = compound: C1CN(CCC1(CC2=CC=C(C=C2)Cl)N)C3=NC=NC4=C3C=CN4
Outline: as §1

IRAK-1-4 Inhibitor I = compound: C1COCCN1CCN2C3=CC=CC=C3N=C2NC(=O)C4=CC(=CC=C4)[N+](=O)[O-] [IRAK-1-4 Inhibitor I]
Outline: as §1

ibrutinib = compound: C=CC(=O)N1CCC[C@@H](n2nc(-c3ccc(Oc4ccccc4)cc3)c3c(N)ncnc32)C1 [ibrutinib]
Outline: as §1

[10] = compound: CC(=O)c1cnc2ccc(-c3cc(Cl)c(O)c(Cl)c3)nc2c1N[C@H]1CC[C@H](CN(C)C)CC1
Outline: as §1

ralimetinib = compound: CC(C)(C)Cn1c(N)nc2ccc(-c3[nH]c(C(C)(C)C)nc3-c3ccc(F)cc3)nc21 [ralimetinib]
Outline: as §1

[11] = compound: CC(C)(O)CC(=O)NCCn1ccc2ncnc(Nc3ccc(Oc4cccc(C(F)(F)F)c4)c(Cl)c3)c21
Outline: as §1

[12] = compound: CC(C)C1=C2N=C(C=C(N2N=C1)NCC3=CC=CC=C3)NCCCCCCN
Outline: as §1

[13] = compound: CC(C)C[C@@H](C=O)NC(=O)[C@H](CC(C)C)NC(=O)[C@H](CC(C)C)NC(=O)OCc1ccccc1
Outline: as §1

pinometostat = compound: CC(C)N(C[C@H]1O[C@@H](n2cnc3c(N)ncnc32)[C@H](O)[C@@H]1O)[C@H]1C[C@@H](CCc2nc3cc(C(C)(C)C)ccc3[nH]2)C1 [pinometostat]
Outline: as §1

[14] = compound: CC1=C(C2=C(C=C1)C(=O)C3=CC=CC=C3N2CCCN)C
Outline: as §1

[15] = compound: CC1=C(C(CC(=O)N1)C2=CC=C(C=C2)C(F)(F)F)C(=O)NC3=C(C=C4C(=C3)C=NN4)F
Outline: as §1

Measured: log2 fold change

FASTKD1 (UniProt Q53R41)
inactive: erlotinib 0.207 | [1] 0.219 | [2] 0.142 | [3] -0.051 | [4] -0.072 | [5] -0.033 | [6] 0.281 | [7] 0.093 | [8] -0.108 | [9] -0.014 | IRAK-1-4 Inhibitor I 0.016 | ibrutinib -0.186 | [10] -0.043 | ralimetinib 0.013 | [11] -0.316 | [12] -0.047 | [13] 0.116 | pinometostat 0.038 | [14] 0.2

FBXO38 (UniProt Q6PIJ6)
inactive: erlotinib 0.216 | [1] 0.184 | [2] -0.06 | [3] -0.007 | [4] 0.181 | [5] 0.072 | [6] -0.076 | [7] -0.005 | [8] -0.056 | [9] -0.014 | IRAK-1-4 Inhibitor I -0.022 | ibrutinib 0.014 | [10] -0.107 | ralimetinib -0.148 | [11] 0.244 | [12] -0.157 | [13] 0.171 | pinometostat 0.066 | [14] 0.113

FANCB (UniProt Q8NB91)
inactive: erlotinib 0.005 | [1] -0.02 | [2] 0.056 | [3] 0.038 | [4] 0.055 | [5] -0.007 | [6] -0.027 | [7] 0.057 | [8] -0.054 | [9] 0.036 | IRAK-1-4 Inhibitor I 0.035 | ibrutinib -0.004 | [10] -0.065 | ralimetinib -0.061 | [11] -0.007 | [12] 0.07 | [13] -0.006 | pinometostat 0.004 | [15] 0.031 | [14] 0.049

FLYWCH2 (UniProt Q96CP2)
inactive: erlotinib 0.02 | [1] 0.014 | [2] 0.047 | [3] 0.028 | [4] -0.048 | [5] -0.009 | [6] -0.075 | [7] 0.031 | [8] -0.027 | [9] 0.07 | IRAK-1-4 Inhibitor I -0.014 | ibrutinib 0.017 | [10] 0.023 | ralimetinib -0.023 | [11] -0.03 | [12] 0.07 | [13] 0.009 | pinometostat 0.004 | [15] 0.024 | [14] 0.025

FCGR2A (UniProt P12318)
inactive: erlotinib 0.136 | [1] 0.114 | [2] -0.194 | [3] -0.017 | [4] 0.056 | [5] -0.076 | [6] 0.037 | [7] -0.117 | [8] -0.067 | [9] 0.011 | IRAK-1-4 Inhibitor I -0.039 | ibrutinib 0.044 | [10] -0.225 | ralimetinib 0.041 | [11] 0.131 | [12] 0.182 | [13] 0.019 | pinometostat 0.067 | [15] -0.178 | [14] 0.077

FKBP2 (UniProt P26885)
inactive: erlotinib -0.041 | [1] -0.061 | [2] -0.045 | [3] -0.015 | [4] 0.092 | [5] -0.028 | [6] 0.015 | [7] -0.023 | [8] -0.033 | [9] 0.027 | IRAK-1-4 Inhibitor I 0.028 | ibrutinib 0.026 | [10] -0.027 | ralimetinib -0.037 | [11] 0.052 | [12] 0.002 | [13] 0.055 | pinometostat -0.018 | [15] -0.023 | [14] 0.026

FCGR2C (UniProt P31995)
inactive: erlotinib 0.04 | [1] 0.014 | [2] 0.046 | [3] -0.036 | [4] 0.006 | [5] 0 | [6] 0.051 | [7] -0.03 | [8] -0.02 | [9] 0.086 | IRAK-1-4 Inhibitor I 0.095 | ibrutinib 0.096 | [10] -0.057 | ralimetinib -0.032 | [11] 0.093 | [12] 0.143 | [13] 0.01 | pinometostat -0.031 | [15] -0.006 | [14] 0.021

FNBP4 isoform 2 (UniProt Q8N3X1)
inactive: erlotinib 0.001 | [1] -0.013 | [2] -0.03 | [3] -0.006 | [4] -0.02 | [5] 0.05 | [6] -0.031 | [7] -0.016 | [8] 0.002 | [9] 0.038 | IRAK-1-4 Inhibitor I 0.052 | ibrutinib 0.058 | [10] -0.009 | ralimetinib -0.03 | [11] 0.038 | [12] 0.061 | [13] 0.014 | pinometostat -0.004 | [15] 0.023 | [14] -0.038

FDFT1 (UniProt P37268)
inactive: erlotinib 0.126 | [1] -0.026 | [2] -0.01 | [3] 0.037 | [4] 0.209 | [5] 0 | [6] 0.011 | [7] 0.144 | [8] -0.039 | [9] 0.059 | IRAK-1-4 Inhibitor I 0.001 | ibrutinib 0.007 | [10] -0.025 | ralimetinib -0.028 | [11] -0.015 | [12] -0.083 | [13] 0.077 | pinometostat -0.042 | [14] -0.06

FAM50A (UniProt Q14320)
inactive: erlotinib 0.015 | [1] 0.051 | [2] 0.054 | [3] -0.017 | [4] -0.009 | [5] 0.062 | [6] -0.019 | [7] -0.001 | [8] -0.026 | [9] -0.065 | IRAK-1-4 Inhibitor I -0.014 | ibrutinib -0.011 | [10] -0.01 | ralimetinib -0.029 | [11] -0.027 | [12] 0 | [13] 0.043 | pinometostat -0.016 | [14] 0.053

FARS2 (UniProt O95363)
inactive: erlotinib 0 | [1] 0.081 | [2] -0.046 | [3] 0.061 | [4] -0.03 | [5] -0.018 | [6] 0.014 | [7] 0.065 | [8] 0.084 | [9] -0.057 | IRAK-1-4 Inhibitor I 0 | ibrutinib -0.038 | [10] -0.05 | ralimetinib -0.004 | [11] -0.028 | [12] -0.182 | [13] -0.001 | pinometostat 0.002 | [14] -0.018

Two entries drawn at random from those above:
FDFT1 (UniProt P37268)
inactive: erlotinib 0.126 | [1] -0.026 | [2] -0.01 | [3] 0.037 | [4] 0.209 | [5] 0 | [6] 0.011 | [7] 0.144 | [8] -0.039 | [9] 0.059 | IRAK-1-4 Inhibitor I 0.001 | ibrutinib 0.007 | [10] -0.025 | ralimetinib -0.028 | [11] -0.015 | [12] -0.083 | [13] 0.077 | pinometostat -0.042 | [14] -0.06

FCGR2C (UniProt P31995)
inactive: erlotinib 0.04 | [1] 0.014 | [2] 0.046 | [3] -0.036 | [4] 0.006 | [5] 0 | [6] 0.051 | [7] -0.03 | [8] -0.02 | [9] 0.086 | IRAK-1-4 Inhibitor I 0.095 | ibrutinib 0.096 | [10] -0.057 | ralimetinib -0.032 | [11] 0.093 | [12] 0.143 | [13] 0.01 | pinometostat -0.031 | [15] -0.006 | [14] 0.021

The list continues.

FBH1 isoform 2 (UniProt Q8NFZ0)
inactive: erlotinib -0.131 | [1] 0.031 | [2] 0.033 | [3] -0.189 | [4] 0.107 | [5] -0.003 | [6] 0.028 | [7] 0.004 | [8] -0.007 | [9] -0.033 | IRAK-1-4 Inhibitor I -0.028 | ibrutinib 0.118 | [10] -0.155 | ralimetinib -0.111 | [11] -0.069 | [12] 0.226 | [13] -0.006 | pinometostat -0.064 | [15] 0.101 | [14] 0.06

FLOT1 (UniProt O75955)
inactive: erlotinib -0.083 | [1] -0.024 | [2] -0.215 | [3] -0.012 | [4] 0 | [5] 0.023 | [6] 0.019 | [7] 0.131 | [8] -0.035 | [9] -0.062 | IRAK-1-4 Inhibitor I -0.123 | ibrutinib -0.091 | [10] -0.043 | ralimetinib 0.22 | [11] 0.011 | [12] -0.166 | [13] 0.093 | pinometostat 0.097 | [15] 0.023 | [14] -0.068

FBXO4 (UniProt Q9UKT5)
inactive: erlotinib 0.061 | [1] 0.074 | [2] 0.102 | [3] 0.035 | [4] 0.106 | [5] 0.001 | [6] 0.023 | [7] 0.007 | [8] -0.014 | [9] -0.021 | IRAK-1-4 Inhibitor I 0.054 | ibrutinib 0.02 | [10] -0.025 | ralimetinib 0.016 | [11] -0.149 | [12] -0.052 | [13] -0.021 | pinometostat -0.001 | [15] 0.014 | [14] 0.149

FBLN1 (UniProt P23142)
inactive: erlotinib -0.118 | [1] -0.156 | [2] 0.007 | [3] 0.138 | [4] 0.075 | [5] 0.006 | [6] -0.025 | [7] -0.27 | [8] 0.155 | [9] 0.319 | IRAK-1-4 Inhibitor I 0.034 | ibrutinib 0.232 | [10] 0.106 | ralimetinib 0.013 | [11] 0.233 | [12] 0.145 | [13] 0.029 | pinometostat -0.041 | [15] 0.068 | [14] -0.203

FKBP5 (UniProt Q13451)
inactive: erlotinib 0.072 | [1] 0.085 | [2] -0.029 | [3] -0.053 | [4] 0.054 | [5] 0.015 | [6] 0.073 | [7] -0.014 | [8] -0.099 | [9] -0.168 | IRAK-1-4 Inhibitor I -0.129 | ibrutinib -0.094 | [10] 0.019 | ralimetinib 0.091 | [11] -0.082 | [12] -0.244 | [13] 0.09 | pinometostat 0.083 | [15] -0.038 | [14] 0.022
